## Primary screen of a compound library

By UniProt entry, the sequences of proteins in these tests, tags left out. Residues count along the entry.
UniProt Q4DA54, 1-478: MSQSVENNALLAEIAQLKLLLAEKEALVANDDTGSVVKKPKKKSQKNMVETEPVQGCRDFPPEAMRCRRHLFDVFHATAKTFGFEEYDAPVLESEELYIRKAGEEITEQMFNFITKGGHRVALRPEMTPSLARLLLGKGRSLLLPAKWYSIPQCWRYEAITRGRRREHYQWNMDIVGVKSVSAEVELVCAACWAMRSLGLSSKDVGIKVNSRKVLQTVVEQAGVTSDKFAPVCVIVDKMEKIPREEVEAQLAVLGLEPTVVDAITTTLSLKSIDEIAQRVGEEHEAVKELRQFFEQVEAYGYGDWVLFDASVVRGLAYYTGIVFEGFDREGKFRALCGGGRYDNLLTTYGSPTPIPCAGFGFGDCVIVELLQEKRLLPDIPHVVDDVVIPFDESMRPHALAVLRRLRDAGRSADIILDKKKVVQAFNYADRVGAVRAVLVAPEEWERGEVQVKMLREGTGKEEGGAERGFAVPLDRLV
UniProt P9WNZ1, whole entry: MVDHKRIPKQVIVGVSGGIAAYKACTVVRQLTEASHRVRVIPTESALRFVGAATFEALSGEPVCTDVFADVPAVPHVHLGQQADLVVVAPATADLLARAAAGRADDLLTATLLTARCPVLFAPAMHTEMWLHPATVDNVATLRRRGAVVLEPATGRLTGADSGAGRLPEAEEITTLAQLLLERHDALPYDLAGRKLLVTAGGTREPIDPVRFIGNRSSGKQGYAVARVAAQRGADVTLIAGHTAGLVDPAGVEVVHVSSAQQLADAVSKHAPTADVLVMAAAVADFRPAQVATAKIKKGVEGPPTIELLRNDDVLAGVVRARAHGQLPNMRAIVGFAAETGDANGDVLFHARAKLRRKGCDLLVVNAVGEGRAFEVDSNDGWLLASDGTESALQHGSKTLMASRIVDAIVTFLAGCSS
UniProt P9WPC5, whole entry: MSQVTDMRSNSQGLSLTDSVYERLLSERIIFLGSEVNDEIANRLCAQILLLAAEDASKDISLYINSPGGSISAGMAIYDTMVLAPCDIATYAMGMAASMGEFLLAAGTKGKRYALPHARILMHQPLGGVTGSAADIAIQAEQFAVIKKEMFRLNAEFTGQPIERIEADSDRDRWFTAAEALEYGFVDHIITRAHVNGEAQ
UniProt P9WPC3, whole entry partner: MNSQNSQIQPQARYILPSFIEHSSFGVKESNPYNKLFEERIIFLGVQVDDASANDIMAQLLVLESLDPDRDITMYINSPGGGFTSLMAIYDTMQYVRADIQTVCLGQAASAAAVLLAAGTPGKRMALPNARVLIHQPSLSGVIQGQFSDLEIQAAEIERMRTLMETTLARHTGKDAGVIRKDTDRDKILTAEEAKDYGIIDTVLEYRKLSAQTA
UniProt Q8IDJ8, 1-583: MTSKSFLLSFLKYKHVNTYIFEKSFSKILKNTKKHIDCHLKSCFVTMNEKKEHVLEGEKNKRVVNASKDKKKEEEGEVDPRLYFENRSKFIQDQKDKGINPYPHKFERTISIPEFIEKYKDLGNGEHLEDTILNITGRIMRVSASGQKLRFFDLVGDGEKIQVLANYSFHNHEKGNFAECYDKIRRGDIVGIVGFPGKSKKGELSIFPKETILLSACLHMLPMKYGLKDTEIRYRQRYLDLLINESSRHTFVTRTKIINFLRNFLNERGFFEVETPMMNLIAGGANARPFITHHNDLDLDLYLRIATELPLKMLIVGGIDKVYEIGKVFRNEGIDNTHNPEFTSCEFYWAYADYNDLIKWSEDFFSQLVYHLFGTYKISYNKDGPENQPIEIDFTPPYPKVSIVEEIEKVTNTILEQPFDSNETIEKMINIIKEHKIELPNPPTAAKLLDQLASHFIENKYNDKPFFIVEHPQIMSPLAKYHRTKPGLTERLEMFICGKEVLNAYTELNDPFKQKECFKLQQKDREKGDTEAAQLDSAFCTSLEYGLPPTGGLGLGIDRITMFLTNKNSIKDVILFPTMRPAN

Measurements from “University of Dundee, Small-Polar-MMV Screening Library” (2021), ChEMBL document CHEMBL3988442.

Values are the deposited “Percent Effect”, in %. The controls that fix the scale are not given in the record; negative values are as filed. Compounds were drawn at random from those tested, without regard to their results. Two or more numbers in one place are separate tests of the same structure; such repeats can differ widely. A dash means the value is not listed here; it may have been measured.

Leishmania in macrophages: 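Cell assay of Leishmania donovani living inside macrophages; the read-out is not stated. Compounds at 30 µM. The record gives no direction; compounds that gave an IC50 in retests scored well above the rest, so higher reads as stronger inhibition. About 69,000 compounds were tested under these conditions; 1.5% (about 1,000) showed 50% or more at least once.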
TcHisRS: 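Enzyme assay of histidyl-tRNA synthetase; the read-out is not stated. Target: Histidine-tRNA ligase, Trypanosoma cruzi CL Brener (UniProt Q4DA54). Concentration: 30 µM. Direction is inferred from retests: higher values go with stronger inhibition. Size under these conditions: about 69,000 compounds, about 31 of them at 50% or above in at least one test.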
CoaBC: 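Enzyme assay of CoaBC with a phosphate dye (Biomol Green) read at 650 nm. Target: Coenzyme A biosynthesis protein CoaBC, Mycobacterium tuberculosis (UniProt P9WNZ1). Concentration: 30 µM. Direction is inferred from only a few compounds that gave an IC50; most scored high, so higher reads as stronger inhibition. Most strong results did not repeat in a second test. About 67,000 compounds were tested under these conditions; 0.06% (about 40) showed 50% or more at least once.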
ClpP1P2: 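Protease assay of ClpP1P2, read by the AMC dye that it sets free. Target: ClpP1P2, Mycobacterium tuberculosis (UniProt P9WPC5 and UniProt P9WPC3). Tested at 50 µM. Direction is inferred from only a few compounds that gave an IC50; most scored high, so higher reads as stronger inhibition. Most other retested compounds had strongly negative values. Size under these conditions: about 69,000 compounds, about 10 of them at 50% or above in at least one test.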
PfKRS1: 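Enzyme assay of the cytosolic lysyl-tRNA synthetase in 384-well plates, read by luminescence. Target: Lysine-tRNA ligase, Plasmodium falciparum 3D7 (UniProt Q8IDJ8). Compounds at 30 µM. Higher reads as stronger inhibition, judged from the few compounds that gave an IC50. Size under these conditions: about 69,000 compounds, about 49 of them at 50% or above in at least one test.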

compound | Leishmania in macrophages | TcHisRS | CoaBC | ClpP1P2 | PfKRS1
O=C(Nc1nc2c(s1)CN(S(=O)(=O)C1CC1)CC2)c1c(F)cccc1F | 6.014 | 2.479 | 0.6397 | -10.97 | 1.008
CC1c2ncc(Cn3cccn3)n2CCN1Cc1ccc(F)cc1 (centres unmarked) | - | 8.543 | 1.361 | 0.4954 | 2.889
O=C(O)C(F)(F)F.O=C(O)C(F)(F)F.c1cncc(C2COC3(CCN(Cc4ccsc4)CC3)C2)c1 (centres unmarked) | -1.09 | - | - | - | -
CNc1ncc(CN(C)C(=O)CCc2cc3n(n2)CCCNC3)cn1 | 36.57 | -6.667 | -0.7453 | -3.568 | 0
CC(C)NC(=O)N1CCC2(CC(=O)N(c3ccsc3)C2)C1 (centres unmarked) | 7.192 | 4.327 | 5.647 | -3.562 | 1.982
O=C(c1ccc(F)cc1F)N1CCN(C(=O)C2CCCCC2)CC1 | 5.288 | 3.017 | 0.3802 | -5.527 | 4.854
O=C(N[C@@H]1CCNC[C@H]1O)c1ccc(F)c(Cl)c1 | 13.21 | 4.167 | -7.463 | -10.03 | -1.272
N#CC1(c2ccccc2)CCN(C(=O)C2CCCN(CC(N)=O)C2)CC1 (centres unmarked) | 37.57 | 5.422 | -1.341 | 5.093 | 1.58
Cc1nc(-n2nc(-c3cccs3)cc2N)[nH]c(=O)c1C | 23.3 | 0.5291 | 1.392 | 13.12 | -0.8408
CCc1nnc2n1CCN(C(=O)CN(CC)CC)C2 | -32.13 | 2.89 | -4.215 | -14.03 | -4.774
Cc1nnc2sc(-c3cc(C(C)C)n[nH]3)nn12 | 35.65 | -1.932 | 0.8696 | -35.66 | 0.5427
O=C(O)C(F)(F)F.O=C(c1ccoc1)N1CC[C@@H](N2CCOCC2)[C@@H]1Cc1ccccc1 | 30.36 | - | - | - | -
O=C1Nc2ccccc2/C1=C1\CCCN1 | 7.311 | 2.97 | -1.687 | 4.56 | -3.455
[H][C@]12CN(CCN3CCCC3=O)CC[C@@]1(O)CCN(c1ncccn1)C2 | -4.506 | - | - | - | -
O=C(CSc1ccccc1)N1CCc2c(ncnc2N2CCOCC2)C1 | -2.014 | 11.64 | 5.72 | -2.672 | 4.626
OC(CNCCc1nnc2ccccn12)c1ccc(F)c(F)c1 (centres unmarked) | 4.127 | 3.478 | 3.151 | -0.2812 | 6.056
[H][C@@]12CCN(S(C)(=O)=O)C[C@@]1([H])O[C@H](c1ccnc(C)n1)C2 | 28.02 | - | - | - | -
COCC(=O)N1CCn2c(Cn3cncn3)cnc2C1C (centres unmarked) | 18.81 | 1.905 | 7.768 | -11.58 | -0.9907
CC(c1ccccc1F)N(CC(N)=O)C1CC1 (centres unmarked) | 11.57 | 9.497 | 2.016 | 1.462 | 2.198
Cc1ccccc1CC(=O)N1C[C@@H](O)[C@H](N2CCOCC2)C1 | 4.097 | 11.65 | 1.399 | -9.835 | 2.258
FC(F)Oc1ccc(NCc2nc(C3CC3)no2)c(OC(F)F)c1 | 16.92 | 3.665 | 0.6424 | -0.4599 | 2.373
CC(O)CN1CCN(C(=O)c2cc3ccccc3[nH]c2=O)CC1 (centres unmarked) | 1.623 | 7.609 | 2.564 | 1.67 | 6.744
CN1CCN(C(=O)c2ccccc2)CC(Cc2cc(N(C)C)ncn2)C1 (centres unmarked) | 23.45 | 9.579 | 0.9709 | -13.93 | -0.4135
C[C@H](NC(=O)c1cnc(-c2ccccc2)nc1O)C(N)=O | 12.89 | 8.163 | 11.9 | -3.056 | 1.154
Cn1cc(N2CCC3(CCN(C(=O)[C@H]4CCCO4)C3)C2=O)cn1 (some centres unmarked) | -24.29 | 6.14 | 1.356 | -5.973 | 0.4604
CCCN1CCC(c2nc3ccc(NCc4ccccc4)cn3n2)CC1 | - | 8.247 | 6.158 | -12.94 | 0.4023
CCn1cc2c(n1)C(COC)CN(C(=O)COc1ccccc1)C2 (centres unmarked) | -48.23 & 1.896 | 7.527 | 0.6316 | -1.774 | -3.771
CC(C)NC(=O)CN(C)C(=O)c1c(Cl)c2ccccc2n1C | -22.2 | 1.478 | 3.871 | -6.47 | 5.717
Cn1cccc1C1CCCN1Cc1noc(C(C)(C)C)n1 (centres unmarked) | 3.174 | 13.43 | 7.152 | -6.802 | -1.054
O=C(c1ccccn1)N1CCn2cnc(COCC3CC3)c2C1 | - | -10.87 | 2.155 | -8.401 | 3.709
[H][C@@]12CS(=O)(=O)C[C@]1([H])N(Cc1ccc(C(C)=O)cc1)CCN2CCOC | 6.327 | - | - | - | -
COCCN1C2(CCN(CC3CC3)C2)c2ccccc2S1(=O)=O (centres unmarked) | - | 9.045 | 5.654 | 24.08 | 3.706
Cn1cc(CN2CCC[C@]3(C(=O)O)CN(c4ncccn4)C[C@@H]3C2)cn1 | - | 3.483 | 3.871 | -6.459 | 8.285
CCn1ccnc1CN(C)c1cc(C2CC2)ncn1 | 20.56 | 13.86 | 2.073 | 1.757 | 2.974
[H][C@@]12CS(=O)(=O)C[C@]1([H])N(C(=O)Nc1cccc(F)c1)CCN2C(=O)CC | 9.089 | - | - | - | -
COc1ccccc1C(C)Nc1ncc(C(N)=O)cc1Cl (centres unmarked) | 18.1 | 6.077 | 1.831 | 8.188 | 2.286
CC(=O)N1CCC2(CCN(Cc3cccc(F)c3)CC2)CC1 | - | 2.488 | 4.194 | -7.288 | -0.6204
Cc1[nH]ccc1C(=O)NCc1ncoc1C | 18.19 | 3.867 | -2.232 | 4.234 | 2.556
C=C1C(C)(C)[C@H]2CC[C@]1(C(=O)N1CCC(n3cc(CO)nn3)CC1)C2 | - | 9.901 | 2.184 | -4.414 | -0.9861
Cn1cccc1C(=O)NCc1cnc2n1CCN(CC1CC1)C2.O=C(O)C(F)(F)F | -13.11 | - | - | - | -
COc1ccc(OCCNC(=O)CN(C)Cc2nnc(C)n2C)cc1 | 20.83 | 3.478 | 2.45 | -8.312 | -6.338

Once more, the final 3:

C=C1C(C)(C)[C@H]2CC[C@]1(C(=O)N1CCC(n3cc(CO)nn3)CC1)C2 read TcHisRS: 9.901%; CoaBC: 2.184%; ClpP1P2: -4.414%; PfKRS1: -0.9861%.
Cn1cccc1C(=O)NCc1cnc2n1CCN(CC1CC1)C2.O=C(O)C(F)(F)F read Leishmania in macrophages: -13.11%.
COc1ccc(OCCNC(=O)CN(C)Cc2nnc(C)n2C)cc1 read Leishmania in macrophages: 20.83%; TcHisRS: 3.478%; CoaBC: 2.45%; ClpP1P2: -8.312%; PfKRS1: -6.338%.